Reference: publication PMC12130850

B1: RAM1-M5, truncated version of RAM1 (RAM1 GRAS domain), yeast two-hybrid fusion (domain or fragment, UniProt A0A145P7T2 309-692)
chain: DQEQDSGLQLVHLLLACAEAVAKEEYMLARRYLHHLNRVVTPLGDSMQRVAACFTESLSARLAATLTTKPQSISNGTSMPRSSSSSCLSPFPSNSIEVLKIYQIVYQACPYVKFAHFTANQAIFEAFEAEERVHVIDLDILQGYQWPTFMQALAARPGGAPFLRITGVGPCIDSVRETGRCLTELAHSLRIPFEFHPVGEQLEDLKPHMFNRRVGEALAVNTVNRLHRVPGSHLGNLLSMIRDQAPNIVTLVEQEASHNGPYFLGRFLEALHYYSAIFDSLDATFPPESAQRAKVEQYIFAPEIRNIVACEGAERIERHERLEKWRKIMEGKGFRGVALSPNAVTQSRILLGLYSCDGYRLTEDKGCLLLGWQDRAIIAASAWR
B2: RAM1m3 of the BiFC assay (protein, UniProt A0A145P7T2 1-693)
chain: MINSMCGSSVSLKSENSRNKPQPTSPNESVLQSKKNATQSSADLEQTSLNLTPPSLNLPALKFDLDGDVEVQSPDSSMWESFFSDHLLDGDFMISSPVRNNVPSPQASTFNSNYNYAHQGIQSQSLSGCSPPRFSSPLGAFNSNKGKGLSPLHRVFNSPNNQYMQHVENLALPAIEEFLEEYQGDHGLGGGGGYSNSSNKVSSDIGSSSECFDMQNHIPSMLDSLTMQNSSRYCGSVSEDSSVHGGSSQLSQDSDFYHQMGSMASASLSQALQQERYQEKQQKQHQTQQQQQPQQQQQNLTVPIPIGMDQEADSGAAAAALLAACAAAVAKEEYMLARRYLHHLNRVVTPLGDSAQRVAACFTESLSARLAATLTTKPQSISNGTSMPRSSSSSCLSPFPSNSIEVLKIYQIVYQACPYVKFAHFTANQAIFEAFEAEERVHVIDLDILQGYQWPTFMQALAARPGGAPFLRITGVGPCIDSVRETGRCLTELAHSLRIPFEFHPVGEQLEDLKPHMFNRRVGEALAVNTVNRLHRVPGSHLGNLLSMIRDQAPNIVTLVEQEASHNGPYFLGRFAEAAAYYAAIFASLDATFPPESAQRAKVEQYIFAPEIRNIVACEGAERIERHERLEKWRKIMEGKGFRGVALSPNAVTQSRILLGLYSCDGYRLTEDKGCLLLGWQDRAIIAASAWRC

Legend:
[1] = target: T1, RAM1 mutant m1 (H320 substituted to alanine), yeast two-hybrid fusion (L. japonicus); assay: two-hybrid; GAL4-based Y2H; wild-type and mutant versions of RAM1 as bait, five AM-induced WRI transcription factors as prey (by the legend); 3-AT
T1 sequence: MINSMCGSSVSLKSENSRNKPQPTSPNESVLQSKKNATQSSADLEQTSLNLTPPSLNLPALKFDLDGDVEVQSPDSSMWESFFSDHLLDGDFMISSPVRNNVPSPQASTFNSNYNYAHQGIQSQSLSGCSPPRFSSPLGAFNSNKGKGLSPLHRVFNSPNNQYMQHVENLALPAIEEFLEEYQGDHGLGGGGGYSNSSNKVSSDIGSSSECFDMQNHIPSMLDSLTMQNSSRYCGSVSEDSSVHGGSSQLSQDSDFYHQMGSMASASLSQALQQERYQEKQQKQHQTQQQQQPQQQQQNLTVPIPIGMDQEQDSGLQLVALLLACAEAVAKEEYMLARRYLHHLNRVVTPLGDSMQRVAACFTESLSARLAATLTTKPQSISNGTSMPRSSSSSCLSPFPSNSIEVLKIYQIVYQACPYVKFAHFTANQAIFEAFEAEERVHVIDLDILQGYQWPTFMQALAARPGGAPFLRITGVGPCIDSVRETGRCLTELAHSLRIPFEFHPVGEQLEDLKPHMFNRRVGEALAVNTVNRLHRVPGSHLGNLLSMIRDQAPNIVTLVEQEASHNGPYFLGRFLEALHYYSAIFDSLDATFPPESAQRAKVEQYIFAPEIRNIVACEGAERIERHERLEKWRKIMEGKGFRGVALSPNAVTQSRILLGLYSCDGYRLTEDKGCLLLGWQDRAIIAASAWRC

[2] = target: T2, RAM1m2 (V319, L323, L576, L579 and H580 substituted with alanine), yeast two-hybrid fusion (L. japonicus); assay: as above
T2 sequence: T1 sequence with V319A, A320H, L323A, L576A, L579A, H580A

[3] = target: T3, RAM1 mutant m3 (all interacting residues of region r3 changed to alanine), yeast two-hybrid fusion (L. japonicus); assay: as above
T3 sequence: B2 chain

[4] = target: WRI5c, yeast two-hybrid fusion (L. japonicus); assay: two-hybrid; GAL4-based Y2H; RAM1 and its truncated versions as prey (AD), WRI proteins, CBX1 and its truncated or mutant versions as bait (BD); yeast growth without histidine and with 3-AT
[5] = target: WRI5a, yeast two-hybrid fusion (L. japonicus); assay: as above
[6] = target: WRI3, yeast two-hybrid fusion (L. japonicus); assay: as above
[7] = target: WRI5b, yeast two-hybrid fusion (L. japonicus); assay: as above
[8] = target: WRI5b fused to a half of Citrine for BiFC (L. japonicus); assay: split reporter; BiFC with halves of Citrine in cortex cells of colonized L. japonicus hairy roots, 5 wpi; fusions under their endogenous promoters
[9] = target: CBX1 fused to a half of Citrine for BiFC (L. japonicus); assay: as above

Molecule	binding [1]	binding [2]	binding [3]	further results
WRI5b, yeast two-hybrid fusion (L. japonicus)	binds	no binding	no binding	
WRI5c, yeast two-hybrid fusion (L. japonicus)	binds	no binding	no binding	
WRI3, yeast two-hybrid fusion (L. japonicus)	binds	no binding	no binding	
WRI5a, yeast two-hybrid fusion (L. japonicus)	binds	no binding	no binding	
B1				binding [4]: binds; binding [5]: binds; binding [6]: binds; binding [7]: binds
B2				binding [8]: no binding; binding [9]: no binding

Where a chain is given by its changes, count along the chain named. No constants are given. Whether binding was seen depends on the method and setting. For part of these data: A result given as binding can be weak or reduced; the word gives no strength. For part of these data: Sequences can lack the tags named with a protein. For part of these data: Binding seen in cells or lysates may run through a third protein.
